Laboratory results: PubChem BioAssay AID1671195 (Yale University, 2021)
This is an unselected part of about 22,000 reagents. About 1,510 of all reagents (6.9%) were called active. 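Active includes knockdowns raising or lowering LDL uptake; positive z-scores mean more uptake, negative mean less.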

- Screen: 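Regulators of LDL receptor activity judged by labelled LDL uptake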 (primary screen)
- Cell system: human Huh7 hepatoma cells
- Reagents: siRNA pool against human genes, 18 nM
- Timing: about 2 to 2.5 days of knockdown, then 8 h LDL uptake
- Challenge: DiI-labelled LDL at 30 µg/ml for 8 h, in lipoprotein-deficient serum medium
- Measurement: 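Fluorescent LDL signal imaged in cells, scaled to the plate median, robust z-score for each replicate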
- Direction: robust z-score: higher = more LDL uptake after knockdown
- Call rule: 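a gene counts as active if at least two replicate z-scores exceed ±2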

gene symbol	robust z-score, replicate 1	robust z-score, replicate 2	robust z-score, replicate 3	activity call
LOC391481 (retired record)	-1.89	-1.89	-2.06	inactive
SLC2A1	-0.966	-0.991	-0.981	inactive
TCAF1	2.33	1.92	-0.298	active
CCNA1	0.113	1.34	0.406	inactive
USP17L8	0.124	-0.421	-0.459	inactive
MMP2	2.01	1.07	2.06	active
OR52N1	0.754	-0.0391	0.29	inactive
LOC389212 (retired record)	0.0552	-0.196	0.0156	inactive
DUX4L1	-0.333	0.842	0.169	inactive
GLB1	-0.152	-0.224	-0.246	inactive
INTS6L	0.0394	-0.225	-0.41	inactive
ZIM2	0.061	0.168	-0.195	inactive
TSPYL2	0.161	0.121	-0.0156	inactive
INSIG1	0.398	-1.09	-0.174	inactive
RPS24P15	-0.861	-0.812	-0.558	inactive
BORCS6	0.01	-0.493	-0.182	inactive
EXOC6B	0.287	0.464	-0.138	inactive
LRMDA	1.22	1.26	1.8	inactive
ZNF8	-1.22	-0.991	-0.733	inactive
C2orf81	0.202	0.434	0.532	inactive
ETV3	-0.349	-0.847	1.83	inactive
RPS10P11	0.389	0.0668	0.201	inactive
RPA4	0.768	0.0119	1.02	inactive
STAB2	1.05	1.59	1.32	inactive
MBIP	-1.63	-0.951	0.264	inactive
LOC387783 (retired record)	-0.432	-0.312	-0.397	inactive
USP6NL-AS1	-0.111	-0.134	-0.471	inactive
GPATCH11P1	-1.47	-1.14	-1.51	inactive

4 entries from above, sorted by “robust z-score, replicate 3”, descending.
gene symbol	robust z-score, replicate 1	robust z-score, replicate 2	robust z-score, replicate 3	activity call
MMP2	2.01	1.07	2.06	active
OR52N1	0.754	-0.0391	0.29	inactive
DUX4L1	-0.333	0.842	0.169	inactive
LOC389212 (retired record)	0.0552	-0.196	0.0156	inactive
